Consider twelve molecules from patent US20220119513A1.

One assay has as its target TGFβ1 (R&D Systems). Briefly: SPR. On the technique in general: In SPR one partner is held on a chip, and binding of the other changes the refractive index at the surface.
The next assay has as its target TGFβ2 (R&D Systems). Briefly: SPR.

Positions count from the first letter of the chain named. Results are given in words; binding and its absence hold for the method and conditions named.

B1: felHclbH618s-K4-1 (antibody, V domains shown)
VH: QVLLVQSGAEVRKPGASVKIFCKASGYTFITYYMHWLRQAPEQGLEWMGRIFPASGSTSYAQKFQGRLTLTADTSTNTAYMELSSLRSADTAMYYCARGDGNYALDAMDYWGQGALVTVSS
VL: AITMTQSPGSLAGSPGQQVTMNCRASESVDSYGNSFMHWYQQKPGQHPKLLIYLASNLESGVPDRFSGSGSGTDFTLTISNLQAEDVASYYCQQNNEDPLTFGAGT
Take B1: the binding entry in the assay with TGFβ1 (R&D Systems) and in the assay with TGFβ2 (R&D Systems) was “no binding” in each case.

B2: felHclbH636x-K1-1 (antibody, V domains shown)
VH: QVLLVQSGAEVRRPGASVKIFCKASGYIFITYYMHWLRQAPAQGFEWMGQIFPASGSTNYNEMFEGRLTLTADTSTDTAYMELSSLRSADTAVYYCARGDGNYALDAMDYWGHGTIVTVSS
VL: EIQMTQSPSSLSASPGDRVTITCRASESVDSYGNSFMHWYQQKPGKVPKLLIYLASNLESGVPSRFSGSGSGTDFTLTISSLEPEDAATYYCQQNNEDPLTFGAGT
B2: the binding result with TGFβ1 (R&D Systems) and with TGFβ2 (R&D Systems) was “no binding” in each case.

B3: felHclbH1-1x-K4-1 (antibody, V domains shown)
VH: B2 VH with R13T, L37V, A40S, F45L, D77N, V93M, H113Q, I116S
VL: B1 VL
B3: the binding result with TGFβ1 (R&D Systems) and with TGFβ2 (R&D Systems) was “no binding” throughout.

B4: felHclbH636x-K4-1 (antibody, V domains shown)
VH: B2 VH
VL: B1 VL
Take B4: the binding entry with TGFβ1 (R&D Systems) and in the assay with TGFβ2 (R&D Systems) was “no binding” throughout.

B5: felHclbH634x-K4-1 (antibody, V domains shown)
VH: B2 VH with R13K, A24T, I28T, M34V, D77N, H113Q, T115A, I116L
VL: B1 VL
Regarding B5, the binding result with TGFβ1 (R&D Systems) and with TGFβ2 (R&D Systems) was “no binding” each time.

B6: felHclbH618x-K4-1 (antibody, V domains shown)
VH: B1 VH with R50Q, S59N, A61N, Q62E, K63M, Q65E
VL: B1 VL
On to B6, for which the binding result with TGFβ1 (R&D Systems) and in the assay with TGFβ2 (R&D Systems) was “no binding” each time.

B7: felHclbH636x-KD2-2 (antibody, V domains shown)
VH: B2 VH
VL: DVVMTQTPLSLPVTPGEPASISCRASESVDSYGNSFMHWYLQKPGQSPRRLIYLASNLESGVPDRFSGSGSGTDFTLRISRVEADDVGVYYCQQNNEDPLTFGAGT
B7: the binding result in the assay with TGFβ1 (R&D Systems) and with TGFβ2 (R&D Systems) was “no binding” in each case.

B8: felHclbH618s-K1-1 (antibody, V domains shown)
VH: B1 VH
VL: B2 VL
Regarding B8, the binding entry with TGFβ1 (R&D Systems) and with TGFβ2 (R&D Systems) was “no binding” each time.

B9: felHclbH618x-K1-1 (antibody, V domains shown)
VH: B1 VH with R50Q, S59N, A61N, Q62E, K63M, Q65E
VL: B2 VL
Regarding B9, the binding entry with TGFβ1 (R&D Systems) and with TGFβ2 (R&D Systems) was “no binding” each time.

B10: felHclbH634x-K1-1 (antibody, V domains shown)
VH: B2 VH with R13K, A24T, I28T, M34V, D77N, H113Q, T115A, I116L
VL: B2 VL
Consider B10, for which the binding result with TGFβ1 (R&D Systems) and in the assay with TGFβ2 (R&D Systems) was “no binding” throughout.

B11: felHclbH1-1x-K1-1 (antibody, V domains shown)
VH: B2 VH with R13T, L37V, A40S, F45L, D77N, V93M, H113Q, I116S
VL: B2 VL
On to B11, for which the binding entry with TGFβ1 (R&D Systems) and in the assay with TGFβ2 (R&D Systems) was “no binding” each time.

B12: felHclbH1-1x-KD2-2 (antibody, V domains shown)
VH: B2 VH with R13T, L37V, A40S, F45L, D77N, V93M, H113Q, I116S
VL: B7 VL
In the case of B12, the binding result with TGFβ1 (R&D Systems) and with TGFβ2 (R&D Systems) was “no binding” in each case.
